Laboratory results from patent US20210008162A1 (OP T, published 2021).
No constants are given. Whether binding was seen depends on the method and setting. Some entries that bind do so weakly or less than the wild type. Blank lines part the entries; values can stand above or below the binder they belong to.

Protein sequences, listed by entry. Tags and fused reporters are not part of them. Lines headed by an entry give the natural chain unless they say otherwise; changes in a name come on top. Residues count along the entry.
UniProt P25942: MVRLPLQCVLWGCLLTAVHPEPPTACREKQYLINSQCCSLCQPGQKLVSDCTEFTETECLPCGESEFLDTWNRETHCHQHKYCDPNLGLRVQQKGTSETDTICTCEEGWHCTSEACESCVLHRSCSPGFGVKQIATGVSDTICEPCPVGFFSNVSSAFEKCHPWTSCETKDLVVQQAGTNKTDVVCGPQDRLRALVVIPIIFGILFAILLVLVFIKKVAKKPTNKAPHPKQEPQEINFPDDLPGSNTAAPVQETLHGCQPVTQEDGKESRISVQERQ
UniProt P27512, residues 20-289: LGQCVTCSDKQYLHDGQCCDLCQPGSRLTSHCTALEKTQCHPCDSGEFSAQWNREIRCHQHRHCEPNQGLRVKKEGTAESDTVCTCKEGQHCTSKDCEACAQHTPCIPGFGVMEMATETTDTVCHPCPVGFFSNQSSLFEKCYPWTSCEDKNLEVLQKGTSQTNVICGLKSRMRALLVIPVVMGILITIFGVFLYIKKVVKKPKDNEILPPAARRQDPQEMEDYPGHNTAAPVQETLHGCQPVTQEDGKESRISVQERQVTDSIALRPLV

Assays:
[1] = molecular target: CD40 on blood cells of type-I diabetic and non-diabetic subjects (Example 4) (Homo sapiens (Human)) (UniProt P25942); assay: whole blood cells with biotin-conjugated peptide, HRP-avidin, absorbance at 405 nm
[2] = molecular target: CD40 on blood cells of type-I diabetic and non-diabetic subjects (Example 4) (Homo sapiens (Human)) (UniProt P25942); assay: whole blood incubated with biotin-conjugated 15-mer peptide, HRP-avidin, absorbance at 405 nm; sheet title 'ELISA measuring CD40 in blood samples'
[3] = molecular target: mouse CD40 on cells (CD40+ T cells / Th40 cells and B cells of NOD mice; mouse CD4+CD40+ cells in culture) (mouse) (UniProt P27512); assay: flow cytometry, FITC-labeled peptide on NOD mouse lymphocytes
[4] = molecular target: dog CD40 on CD4+CD40+ peripheral blood mononuclear cells; assay: flow cytometry; PBMC of a known diabetic dog stained with CD3, CD4, CD40 and the peptide; right panel gated on the CD4+CD40+ quadrant (65.2) of the left panel; CD3 (y axis) versus AKKGYY (x axis)

binding [1]: binds | binding [2]: binds
Binder: VLQWAKKGYYTMKSN (biotin conjugate (position not given)) [biotin-conjugated 15-mer peptide]

binding [3]: binds
Binder: VLQWAKKGYYTMKSN (FITC label (position not given)) [FITC-labeled 15-mer peptide from CD154]

binding [4]: binds
Binder: AKKGYY
